We go through 42 sequences from PMC7819943, “Rice protein-binding microarrays: a tool to detect cis-acting elements near promoter regions in rice”.

The list shows a part of the results.

The experiment has as its target T1, OsSMF1 (Oryza sativa, UniProt Q6ZLB0 1-436).
T1 sequence: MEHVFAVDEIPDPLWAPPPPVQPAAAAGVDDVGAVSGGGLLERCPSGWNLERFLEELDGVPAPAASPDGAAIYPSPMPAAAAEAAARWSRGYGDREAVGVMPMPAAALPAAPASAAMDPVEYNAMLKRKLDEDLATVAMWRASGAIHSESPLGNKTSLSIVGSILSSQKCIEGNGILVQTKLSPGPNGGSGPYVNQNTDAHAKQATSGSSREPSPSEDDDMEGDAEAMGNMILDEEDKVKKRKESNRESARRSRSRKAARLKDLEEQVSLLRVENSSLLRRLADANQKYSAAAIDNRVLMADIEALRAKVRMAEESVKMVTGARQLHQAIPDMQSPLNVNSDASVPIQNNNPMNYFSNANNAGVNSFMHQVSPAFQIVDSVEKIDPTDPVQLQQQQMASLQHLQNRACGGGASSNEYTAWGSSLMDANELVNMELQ
Nature of the experiment: protein-binding microarray (RPBM); PBS, 2% BSA, 51.3 ng/ul salmon testes DNA, 50 uM zinc acetate, 200 nM TF, 25 C, 1 h; high values mean tight binding. Conditions: protein: recombinant; tags: N-terminal polyhistidine and DsRed monomer fusion (pET32a); chain copies: 2; label: CyDye5-dUTP incorporated in the synthesized complementary strand; 3' TTTTT single-stranded linker to array surface; dsDNA, one strand shown. The procedure, abridged:
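Binding signal here means per-feature fluorescence intensity in arbitrary units. The values were read on an Axon 4000B scanner after a custom Agilent array, double-stranded by primer extension with Cy5-dUTP, was incubated with 200 nM protein at 25 °C for 1 h in PBS with 2% BSA, salmon testes DNA and 50 µM zinc acetate, then washed. The proteins were transcription factors with an N-terminal polyhistidine tag and DsRed, expressed in E. coli BL21-CodonPlus and purified on Ni–NTA.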
For “TTTCGCCATTTCCGACAATGTACTTCACCACTGATCTGAACGGAGTCACCTAGTGCAG”, the binding signal is 64900 fluorescence intensity (a.u.). In the case of “GGACTATATAGTAGGAGTACGTCACTACGTCCTGTATAGGCGGAGTCACCTAGTGCAG” it was 5840 fluorescence intensity (a.u.); in that of “GGAGTATCATTTTGTCTATTCTATTTAGACACAACATGTTCGGAGTCACCTAGTGCAG”, 3920 fluorescence intensity (a.u.). For the sequence “AACCTCGCCACCTCCTCCACGTTATGGCATCGCCTCCTCGCGGAGTCACCTAGTGCAG”, the binding signal is 6660 fluorescence intensity (a.u.). As for “TAACTTTGGATGAAGTTTTGGATTTTCGTGGCACGCTTTTCGGAGTCACCTAGTGCAG”, the figure is 4370 fluorescence intensity (a.u.). For “GTAAAATTCCTCGTGATGACATGGACTGATATTTTCCCTGCGGAGTCACCTAGTGCAG”, the binding signal was 6110 fluorescence intensity (a.u.). In the case of “GCGCTAAAAGTTCTCCTGCGACGTCATCAGTGTAAAGGCTCGGAGTCACCTAGTGCAG” it was 9600 fluorescence intensity (a.u.); in that of “TTATAGGATGACATATAGCGGCTTAGGAGCGTTTGTAGAACGGAGTCACCTAGTGCAG”, 34100 fluorescence intensity (a.u.); in that of “CGATCAAAGCGTGCCACCTACATCCTCGAGAGCGTCTCCCCGGAGTCACCTAGTGCAG”, 3650 fluorescence intensity (a.u.). On to “TTGATCCATACCTTACATTCTTGATTACACATTGCTGACTCGGAGTCACCTAGTGCAG”, for which the binding signal is 3600 fluorescence intensity (a.u.). For the sequence “CGTCCAAATATTATTTCCTGCGCGTGGTTTACAAAAGAGGCGGAGTCACCTAGTGCAG”, the binding signal was 47300 fluorescence intensity (a.u.). Take “CCCATCAACGAATACGATGCGGCCATGACTCGGCGCAGGACGGAGTCACCTAGTGCAG”: the binding signal was 4320 fluorescence intensity (a.u.). In the case of “TTTCACCTGGTAAAGTTGTGTGTCAGCTGTGGTTTGCTGTCGGAGTCACCTAGTGCAG” it was 6630 fluorescence intensity (a.u.); in that of “ATCCTATCCTACGTGTCATATGCTCCACATCAGCGAGCGGCGGAGTCACCTAGTGCAG”, 23100 fluorescence intensity (a.u.).

Consider “TTTTACATATATATATGTCATGTAATTGACATAAGTAGACCGGAGTCACCTAGTGCAG”, for which the binding signal was 26100 fluorescence intensity (a.u.). Consider “TTAAAGTATCCGCGCCCCTTTTATGCTAGCTGGAGCAAAACGGAGTCACCTAGTGCAG”, for which the binding signal is 19000 fluorescence intensity (a.u.). As for “CCCTTTCATCGGCGACGACTCATCGTCGTCATCGTTCGTCCGGAGTCACCTAGTGCAG”, the binding signal is 4410 fluorescence intensity (a.u.). Consider “ATTCCAGTCCTCTCCATGGTAGTCAACGTCAATTTCTCACCGGAGTCACCTAGTGCAG”, for which the binding signal was 3840 fluorescence intensity (a.u.). Regarding “CTCGTGCAAGGAAGACATGTCTGCATCTCCATAGTCAAACCGGAGTCACCTAGTGCAG”, the binding signal is 4380 fluorescence intensity (a.u.).

“TAGGATCCATATGAGTCAATGATATGTGGGTCAGGATGGTCGGAGTCACCTAGTGCAG”: the binding signal was 3940 fluorescence intensity (a.u.). As for “ATGACGCAAATTCTCAGGTACACGTTTGGTGCCCCGGAGCCGGAGTCACCTAGTGCAG”, the figure is 3360 fluorescence intensity (a.u.); as for “CAATGTGGTCACGTGAATTCTCTCTGTCAGTTTTGATGTGCGGAGTCACCTAGTGCAG”, 3870 fluorescence intensity (a.u.); as for “CCCTCACCTTATCCCGAAGGACACGTGCGACTTCTTCGGTCGGAGTCACCTAGTGCAG”, 5050 fluorescence intensity (a.u.). Take “ATGTAATCCAAATGGACCCCACGTGGAACATGCTCACAGTCGGAGTCACCTAGTGCAG”: the binding signal is 10100 fluorescence intensity (a.u.).

As for “CGGAGGCAGGAACAAGTTGGCGGCGACCATCTTGACCAGCCGGAGTCACCTAGTGCAG”, the binding signal was 3400 fluorescence intensity (a.u.). In the case of “TGAGAAATTCTTGCTAGATGTGTTGTACCATTATCAGCAGCGGAGTCACCTAGTGCAG”, the binding signal was 4580 fluorescence intensity (a.u.). As for “ACGCTCGCCGCGCCGGCACGCCATTCCCTTCTCGTCAGGTCGGAGTCACCTAGTGCAG”, the binding signal was 3220 fluorescence intensity (a.u.).

For “CTTCTGGCTCTGGGTACGTACTCATGAGTCAGGAAAGGAACGGAGTCACCTAGTGCAG”, the binding signal was 4640 fluorescence intensity (a.u.). “GGCCACGCCGCCGCATACTCTCTGCCACCTAGCATCATCACGGAGTCACCTAGTGCAG”: the binding signal is 4030 fluorescence intensity (a.u.). In the case of “TACTGCCCCACGTGTTGCAAGATCTACAACTGCAATAGACCGGAGTCACCTAGTGCAG” it was 4240 fluorescence intensity (a.u.). In the case of “CTCCTGTGAGGAACAAACGGTTGAGATGGTGCCACGTGGCCGGAGTCACCTAGTGCAG” it was 26700 fluorescence intensity (a.u.). In the case of “CCGCCGCCACATTGATGGTAATAGTTGGATCCGCCGCCTCCGGAGTCACCTAGTGCAG” it was 3590 fluorescence intensity (a.u.); in that of “CGCCCTTGCTACCCGTAGATGTCATGTCTGATGTTGCTCCCGGAGTCACCTAGTGCAG”, 4150 fluorescence intensity (a.u.). On to “ACACTAACTAGTACAAAGGATTATGCGTGACGAGCTGGATCGGAGTCACCTAGTGCAG”, for which the binding signal is 3410 fluorescence intensity (a.u.). In the case of “TTTTATGCAGTCCAATAACCAAAGAACACTTGAAAATAACCGGAGTCACCTAGTGCAG” it was 34300 fluorescence intensity (a.u.); in that of “CGGCGTGCCGCACCGGCGTGGCGTCACGCTGGCCACGGAACGGAGTCACCTAGTGCAG”, 7400 fluorescence intensity (a.u.). As for “TCCCACGTATAGGGTCCCACTTGTCAGTGACGTTTTGCGTCGGAGTCACCTAGTGCAG”, the figure is 4270 fluorescence intensity (a.u.). In the case of “AGGCTTTCAGACCGCTCTGTACGTGACGTGGCCTACTCATCGGAGTCACCTAGTGCAG”, the binding signal is 32500 fluorescence intensity (a.u.).

Consider “GGGTCCATTTGGTAACTGACTCCACGTTCGATGGATCAACCGGAGTCACCTAGTGCAG”, for which the binding signal is 3540 fluorescence intensity (a.u.).

With “GAATTGGATAGCAGACTACGGCGACTGCCACACAGGGTCTCGGAGTCACCTAGTGCAG”, the binding signal was 5750 fluorescence intensity (a.u.). As for “TTATGCCAGCTATTGCCGCAATTCCCTCCTCTTATCTCAACGGAGTCACCTAGTGCAG”, the figure is 5930 fluorescence intensity (a.u.); as for “GCGCCGGAACACCACCCTGATCTACTCAGCCGCGGCCGCCCGGAGTCACCTAGTGCAG”, 3710 fluorescence intensity (a.u.).
